PubChem BioAssay AID493014 (National Center for Advancing Translational Sciences (NCATS), 2011)
Some of the results follow. Shown are side measurements of this screen, not its main read-out; they come without a call. The list favours compounds with an active or inconclusive main result. Potencies come from curve fits of mixed quality, noted in brackets.

Experiment: qHTS Assay to Find Inhibitors of Chronic Active B-Cell Receptor Signaling
Settings: ABC-DLBCL IkBa-CBG/CBR reporter, luminescence ratio (green luciferase fused to IkBa over red control in TMD8 lymphoma cells), 4 h
Method in brief: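 Cell line TMD8 (human ABC DLBCL), stably expressing tet-inducible CBG68-IkBa fusion and CBR; IMDM/0.5% FBS; cpd up to 46 uM; dox induction, 4 h, 37C/5% CO2; dual luminescence; green/red ratio; MG132 control.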

[1] = measured here: CBR red luminescence, cell number
[2] = measured here: IkBa-CBG green luminescence

Row | SMILES | AC50 [1] | AC50 [2]
1 | O=c1c(C=NCC2CCCO2)c(-c2ccccc2)[nH]n1-c1ccc([N+](=O)[O-])cc1 (configuration not stated) | 0.794 µM [rising, full curve, poor fit] | –
2 | CCN(CC)CCn1c2c(c(SCC(=O)Nc3nc(C)cs3)nc1=O)CCCC2 | 16.4 µM [falling, partial curve, poor fit] | –
3 | S=C(NC1CCCCC1)N1CCN(c2ccccn2)CC1 | 0.366 µM [rising, full curve] | –
4 | C=C(C)C(O)CC/C(C)=C/Cc1c(O)ccc(C(=O)/C=C/c2ccc(O)cc2)c1O (configuration not stated) | 29.1 µM [falling, single point] | –
5 | COC(=O)Cc1cc(OC)c(OC)cc1Cc1cc(OC)c(OC)cc1CC(=O)OC | 4.61 µM [rising, partial curve, poor fit] | –
6 | O=C(c1ccccc1)N1CCN(CC2CC=CCC2)CC1 (configuration not stated) | 20.6 µM [falling, single point] | –
7 | Cc1nnc(Sc2cc(NCCCO)c([N+](=O)[O-])c3nonc23)s1 | 35.5 µM [falling, single point] | 3.98 µM [falling, single point]
8 | Cc1ccc(Nc2nc(-c3cccnc3)nc3ccccc23)cc1 | 6.31 µM [falling, full curve] | –
9 | CCOC(=O)C/C(C)=N/NC(=O)C1CC1(c1ccccc1)c1ccccc1 (configuration not stated) | 29.1 µM [falling, single point] | –
10 | Cc1ccc(S(=O)(=O)N(C)/N=C/c2ccc(N(C)C)cc2)cc1 | 10 µM [rising, partial curve, poor fit] | –
11 | CC(C)c1ccc(S(=O)(=O)c2cc3cc(Br)ccc3oc2=O)cc1 | 0.651 µM [falling, full curve] | –
12 | Cc1cccc(CCNC(=O)c2c[nH]c3ccc(S(=O)(=O)Nc4ccccc4F)cc3c2=O)c1 | 6.31 µM [falling, partial curve, poor fit] | –
13 | COc1ccnc(N2CCN(c3ccccc3)CC2)c1C#N | 5.17 µM [rising, full curve, poor fit] | –
14 | O=C(NCCc1ccc(Cl)cc1)c1ccc2c(c1)N(Cc1cccc(Cl)c1)C(=O)c1ccccc1S2(=O)=O | 14.1 µM [rising, partial curve, poor fit] | –
15 | Cc1ccc(-c2ccc(/C=N\n3cnnc3)o2)c(Br)c1 | 15.8 µM [rising, single point] | –
16 | COc1cccc(N(CC(=O)N2CCCC2)S(C)(=O)=O)c1 | 4.47 µM [rising, single point] | –
17 | Cc1ccc2cccc(OCc3nnc(SCC(=O)O)n3C)c2n1 | 31.6 µM [falling, single point] | –
18 | CCSCc1nc2ccccn2c1Br | 1.58 µM [falling, full curve, poor fit] | –
19 | CCOc1ccccc1/C=C/C(=O)N1CCN(C(=O)c2ccco2)CC1 | 29.1 µM [falling, partial curve, poor fit] | –
20 | c1ccc(COc2ccccc2CNC2CCCC2)cc1 | 22.4 µM [falling, single point] | –
21 | COC(=O)c1c(C)[nH]c(C(=O)OC(C)C(=O)N(C)C2CCCCC2)c1C (configuration not stated) | – | 11.6 µM [rising, partial curve, poor fit]

Row | SMILES | AC50 [1] | AC50 [2]
22 | CSCC(O)Cn1ncc2ccccc2c1=O (configuration not stated) | 7.94 µM [rising, partial curve, poor fit] | –
23 | Cc1ccc(S(=O)(=O)N2CCN(C(=O)CN3C(=O)NC4(CCOc5ccccc54)C3=O)CC2)cc1 (configuration not stated) | 18.4 µM [rising, partial curve] | 9.2 µM [falling, partial curve, poor fit]
24 | CCOc1cc(/C=N/n2cnnc2)ccc1OCC(=O)Nc1ccccc1OC | 0.0731 µM [falling, full curve, poor fit] | –
25 | N#C/C(=C/c1ccc(O)c([N+](=O)[O-])c1)C(=O)Nc1ccccc1 | 31.6 µM [falling, single point] | –
26 | Cc1cc(C(=O)OCC(=O)Nc2cccnc2Cl)c2ccccc2n1 | 25.1 µM [falling, single point] | –
27 | COc1cccc(C(=O)Nc2ncc3c(n2)CC(C)(C)CC3=O)c1 | 8.91 µM [falling, partial curve] | –
28 | COCCCNC(=O)Cn1nnc(-c2ccc(NC(=O)c3ccc(F)cc3)cc2)n1 | 0.164 µM [falling, full curve, poor fit] | –
29 | COc1ccccc1/C=C/C(=O)NCCC1=CCCCC1 | 14.1 µM [falling, partial curve] | –
30 | C=CCSc1nnc(NC(=O)c2cccc(S(=O)(=O)N3CCOCC3)c2)s1 | 16.4 µM [falling, partial curve, poor fit] | –
31 | CC(C)/C(=N\NC(=O)Nc1ccccc1)c1ccccc1 | 10 µM [rising, partial curve] | –
32 | Cn1nccc1-c1cc(Cl)cc(Cl)c1O | 15.8 µM [rising, single point] | –
33 | Cc1ccc(S(=O)(=O)Nc2c(NC3CCCCC3)c3ccccc3oc2=O)cc1C | 12.6 µM [falling, partial curve, poor fit] | –
34 | BrC(=C\c1ccccc1)/C=N/Nc1ccc2nncn2n1 | 3.98 µM [rising, partial curve, poor fit] | –
35 | COc1ccc(Nc2nc3ccccc3nc2-n2nc(C)cc2C)cc1 | 29.1 µM [rising, single point] | –
36 | O=C(CSc1ccc2nnc(-c3cccc(F)c3)n2n1)NCC1CCCO1 (configuration not stated) | 5.62 µM [rising, full curve, poor fit] | –
37 | O=C(CCNC(=O)c1ccccc1Cl)Nc1cc(S(=O)(=O)N2CCOCC2)ccc1N1CCOCC1 | 15.8 µM [falling, single point] | –
38 | CN(C)CCNC(=O)c1cc2c(s1)-c1ccccc1OC2 | 8.2 µM [falling, partial curve, poor fit] | –
39 | O=C(N/N=C/c1ccc(Cl)cc1Cl)C(=O)NC1CC1 | 3.98 µM [rising, full curve] | –
40 | CN(C)c1nc(=NCc2ccco2)ss1 | 0.708 µM [falling, full curve, poor fit] | 1 µM [falling, full curve]
41 | Cc1cccc(NC(=O)c2cc(-c3ccc(C)c(C)c3O)n[nH]2)c1 | 12.6 µM [falling, partial curve] | –
42 | O=S(=O)(Nc1ccc(-c2nc3cccnc3s2)cc1)c1ccc(Cl)s1 | 29.1 µM [falling, single point] | –

Row | SMILES | AC50 [1] | AC50 [2]
43 | O=C(/C=C1\SC(=O)NC1=O)Nc1ccc(C(=O)O)cc1 | 7.94 µM [falling, full curve, poor fit] | –
44 | CC(=O)Nc1cc2nc(C)n(Cc3ccccc3)c2nc1C | 15.8 µM [rising, partial curve, poor fit] | –
45 | CCC(=O)Nc1cccc(NC(=S)NC(=O)c2ccccc2C)c1 | 4.47 µM [falling, partial curve] | –
46 | COc1ccccc1NC(=O)CC1S/C(=N/N=C2\CCCc3ccccc32)NC1=O (configuration not stated) | 11.2 µM [falling, partial curve, poor fit] | –
47 | C[C@@H](C(=O)O)[C@H]1C[C@]1(C)[C@H](NC(=O)OCc1ccccc1)c1ccccc1 | 16.4 µM [rising, partial curve, poor fit] | –
48 | Cc1ccc(NC(=O)c2ccc3c(c2)OCCO3)cc1S(=O)(=O)Nc1cccc(Cl)c1 | 18.4 µM [falling, partial curve] | 23.1 µM [rising, partial curve, poor fit]
49 | O=S(c1ccc2ccccc2c1)c1cnns1 (configuration not stated) | 6.31 µM [falling, single point] | –
50 | COc1cc(OC)cc(-c2c(-c3ccc(F)cc3)c3cc(-c4ccc5[nH]ccc5c4)ccc3n2C)c1 | 29.1 µM [rising, single point] | –
51 | COc1ccc(NC(=O)c2cc(CC(C)C)on2)cc1OC | 29.1 µM [rising, single point] | –
52 | CCN(Cc1nc(-c2ccc(OC)c(OC)c2)no1)C(=O)c1ccoc1C | 11.2 µM [falling, partial curve] | –
53 | O=C(CSc1ccccn1)Nc1ccc2c(c1)C(=O)c1ccccc1C2=O | – | 23.1 µM [rising, partial curve, poor fit]
54 | Cc1[nH]n2c(=O)c3c(nc2c1-c1ccccc1)CCC3 | 0.92 µM [falling, full curve, poor fit] | –
55 | CCc1ccc(NC2Nc3cc(C)nn3S2)cc1 (configuration not stated) | 0.92 µM [rising, full curve, poor fit] | –
56 | O=C(Nc1ccc(Cl)cn1)Nc1ccc(Cl)cn1 | 1.78 µM [rising, full curve, poor fit] | –
57 | O=C(NC1CCCCC1)c1ccc2c(c1)OCO2 | 17.8 µM [falling, partial curve, poor fit] | –
58 | CNC(=O)c1ncoc1-c1ccc(Cl)cc1 | 2.82 µM [rising, single point] | –
59 | Cc1cc(C)c(C(=O)CSc2nc(C)cc(=O)[nH]2)c(C)c1 | 3.55 µM [rising, single point] | –
60 | Nc1[nH]n(-c2ccccc2)c(=O)c1N=Nc1ccc2c(c1)OCO2 | 1 µM [falling, full curve] | –
61 | Cc1ccc(NC(=O)Cn2cnc3sc(C(=O)NCc4ccco4)c(C)c3c2=O)cc1Cl | 23.1 µM [rising, single point] | –
62 | O=C(CCn1c(=O)c2ccccc2n(CC(=O)NC2CCCC2)c1=O)NCc1ccco1 | 6.51 µM [rising, single point] | –
63 | Cc1sc2ncnc(N=Nc3c(O)[nH]c4ccccc34)c2c1C | 0.461 µM [falling, full curve, poor fit] | –

Of the compounds above, 2 have a cyano group.
Row | SMILES | AC50 [1] | AC50 [2]
13 | COc1ccnc(N2CCN(c3ccccc3)CC2)c1C#N | 5.17 µM [rising, full curve, poor fit] | –
25 | N#C/C(=C/c1ccc(O)c([N+](=O)[O-])c1)C(=O)Nc1ccccc1 | 31.6 µM [falling, single point] | –
